Counter-ions that a name gives are not always drawn. This is one part of the list. Hit calls seldom repeat between salt and free forms of one compound.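 Kinases were expressed as nanoluciferase fusions in K562 cells and luminescence was read every 4 h between 2 and 18 h as percent of control, DMSO set to 100% and a positive control to 0%. A time point counts as decreased when the signal drops significantly (2 sigma). The hit call is the authors' own, does not follow from the count of time points alone, and its rule is not shown.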
Columns and labels:
Assay in all cases: kinase-Nluc reporter destabilization hit call (1 = scored as downregulated) (binary); higher = compound decreases kinase abundance
Conditions in all cases: K562; 2-18 h
BRAF_V600E = test system: BRAF_V600E
BTK = BTK (UniProt Q06187)
CAMK2A = CAMK2A (UniProt Q9UQM7)
CAMK2G = CAMK2G (UniProt Q13555)
CDK10 = CDK10 (UniProt Q15131)
CDK2 = CDK2 (UniProt P24941)
CDK3 = CDK3 (UniProt Q00526)
CDK4 = CDK4 (UniProt P11802)
CDK5 = CDK5 (UniProt Q00535)
CDK6 = CDK6 (UniProt Q00534)

By UniProt entry, the sequences of proteins in these tests, tags left out. Where a name states a change or a piece, a line headed by the entry shows the natural chain unless it says otherwise.
UniProt Q06187: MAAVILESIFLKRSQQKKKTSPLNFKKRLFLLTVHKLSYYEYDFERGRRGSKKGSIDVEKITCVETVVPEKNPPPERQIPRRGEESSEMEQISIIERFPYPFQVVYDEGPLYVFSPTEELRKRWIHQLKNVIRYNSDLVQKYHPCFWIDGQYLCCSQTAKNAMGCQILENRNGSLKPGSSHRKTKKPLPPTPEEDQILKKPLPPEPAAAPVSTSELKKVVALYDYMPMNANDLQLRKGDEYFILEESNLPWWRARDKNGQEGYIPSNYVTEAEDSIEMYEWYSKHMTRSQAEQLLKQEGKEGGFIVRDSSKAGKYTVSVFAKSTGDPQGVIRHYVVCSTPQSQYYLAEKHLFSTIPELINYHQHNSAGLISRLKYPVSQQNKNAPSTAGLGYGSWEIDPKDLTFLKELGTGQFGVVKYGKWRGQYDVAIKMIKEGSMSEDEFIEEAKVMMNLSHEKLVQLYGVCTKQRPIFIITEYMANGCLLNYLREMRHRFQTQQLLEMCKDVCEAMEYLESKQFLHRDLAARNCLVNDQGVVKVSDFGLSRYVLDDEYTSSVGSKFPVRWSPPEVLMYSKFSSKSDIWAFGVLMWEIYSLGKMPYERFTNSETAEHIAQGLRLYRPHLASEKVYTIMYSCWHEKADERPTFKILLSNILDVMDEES
UniProt Q9UQM7, whole entry: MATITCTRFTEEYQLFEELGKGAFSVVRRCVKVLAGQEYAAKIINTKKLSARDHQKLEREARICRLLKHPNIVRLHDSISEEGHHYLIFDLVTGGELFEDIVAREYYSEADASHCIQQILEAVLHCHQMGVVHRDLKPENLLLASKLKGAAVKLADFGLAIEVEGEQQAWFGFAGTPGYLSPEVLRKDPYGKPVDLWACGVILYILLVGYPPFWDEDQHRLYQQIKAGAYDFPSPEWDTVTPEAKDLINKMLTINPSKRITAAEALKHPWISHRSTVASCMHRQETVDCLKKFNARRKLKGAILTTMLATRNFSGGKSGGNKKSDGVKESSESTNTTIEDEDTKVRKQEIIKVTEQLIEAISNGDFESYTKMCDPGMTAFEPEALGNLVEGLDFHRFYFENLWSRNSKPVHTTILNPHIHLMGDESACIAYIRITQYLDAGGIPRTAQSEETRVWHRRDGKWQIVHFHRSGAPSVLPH
UniProt Q13555: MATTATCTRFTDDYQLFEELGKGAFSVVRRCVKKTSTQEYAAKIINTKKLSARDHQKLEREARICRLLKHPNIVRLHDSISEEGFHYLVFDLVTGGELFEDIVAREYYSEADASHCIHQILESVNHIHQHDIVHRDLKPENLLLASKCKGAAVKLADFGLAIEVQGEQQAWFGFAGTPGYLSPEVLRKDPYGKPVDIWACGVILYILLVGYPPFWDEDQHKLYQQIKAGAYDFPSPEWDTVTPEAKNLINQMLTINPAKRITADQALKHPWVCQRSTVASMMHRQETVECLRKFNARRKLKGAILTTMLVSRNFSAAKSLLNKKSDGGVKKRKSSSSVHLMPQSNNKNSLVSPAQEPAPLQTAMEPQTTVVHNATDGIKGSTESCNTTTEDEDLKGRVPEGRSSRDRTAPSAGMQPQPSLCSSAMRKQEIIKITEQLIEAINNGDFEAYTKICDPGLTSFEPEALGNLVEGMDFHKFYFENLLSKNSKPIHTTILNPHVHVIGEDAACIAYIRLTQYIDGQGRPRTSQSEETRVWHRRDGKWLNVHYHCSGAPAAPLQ
UniProt Q15131: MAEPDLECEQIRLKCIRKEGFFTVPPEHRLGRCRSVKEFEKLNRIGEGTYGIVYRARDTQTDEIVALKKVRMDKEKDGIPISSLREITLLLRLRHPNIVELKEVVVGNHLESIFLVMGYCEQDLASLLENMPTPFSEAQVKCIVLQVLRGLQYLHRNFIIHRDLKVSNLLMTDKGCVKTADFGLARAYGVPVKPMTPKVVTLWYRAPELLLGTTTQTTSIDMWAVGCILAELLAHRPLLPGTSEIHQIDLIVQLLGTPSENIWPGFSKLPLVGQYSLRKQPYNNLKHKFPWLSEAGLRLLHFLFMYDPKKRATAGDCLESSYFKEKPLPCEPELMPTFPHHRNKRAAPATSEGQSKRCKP
UniProt Q00526: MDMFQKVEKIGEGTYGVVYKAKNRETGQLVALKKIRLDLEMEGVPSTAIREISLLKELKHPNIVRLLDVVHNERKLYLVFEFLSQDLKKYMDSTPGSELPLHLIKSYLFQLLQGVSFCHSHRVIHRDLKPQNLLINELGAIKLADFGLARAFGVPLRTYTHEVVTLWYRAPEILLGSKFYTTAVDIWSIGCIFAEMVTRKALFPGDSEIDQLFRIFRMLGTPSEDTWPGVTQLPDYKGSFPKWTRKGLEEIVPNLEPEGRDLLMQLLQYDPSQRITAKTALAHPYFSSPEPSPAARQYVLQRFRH
UniProt P11802: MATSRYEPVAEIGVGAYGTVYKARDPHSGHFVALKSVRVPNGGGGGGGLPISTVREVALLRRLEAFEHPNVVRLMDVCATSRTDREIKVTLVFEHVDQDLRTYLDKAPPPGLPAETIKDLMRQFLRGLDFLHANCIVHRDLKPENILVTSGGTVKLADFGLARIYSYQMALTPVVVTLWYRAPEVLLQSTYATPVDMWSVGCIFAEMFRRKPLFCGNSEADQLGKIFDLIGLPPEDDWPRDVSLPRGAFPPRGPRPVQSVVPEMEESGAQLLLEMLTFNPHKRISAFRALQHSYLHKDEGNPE
UniProt Q00535, whole entry, looked up: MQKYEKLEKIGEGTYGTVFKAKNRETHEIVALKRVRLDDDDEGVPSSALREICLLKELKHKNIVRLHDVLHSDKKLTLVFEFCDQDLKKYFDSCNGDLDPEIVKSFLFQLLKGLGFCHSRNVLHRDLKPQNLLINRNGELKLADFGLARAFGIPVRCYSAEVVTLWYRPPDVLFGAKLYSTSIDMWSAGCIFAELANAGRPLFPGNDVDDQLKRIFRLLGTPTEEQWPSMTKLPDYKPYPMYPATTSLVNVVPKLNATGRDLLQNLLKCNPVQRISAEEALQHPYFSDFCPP
UniProt Q00534, whole entry: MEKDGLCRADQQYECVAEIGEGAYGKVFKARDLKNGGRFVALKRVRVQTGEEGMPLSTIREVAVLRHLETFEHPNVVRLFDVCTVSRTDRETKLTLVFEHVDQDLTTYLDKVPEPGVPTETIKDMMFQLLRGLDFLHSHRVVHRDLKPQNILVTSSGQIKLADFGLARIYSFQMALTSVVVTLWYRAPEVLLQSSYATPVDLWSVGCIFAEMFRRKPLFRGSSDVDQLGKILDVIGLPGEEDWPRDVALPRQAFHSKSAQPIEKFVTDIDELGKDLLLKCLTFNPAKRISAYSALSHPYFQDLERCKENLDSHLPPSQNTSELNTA

Measured: kinase-Nluc reporter destabilization hit call

COc1c(OCCCN2CCOCC2)ccc2c3n(c(=NC(=O)c4cnc(N)nc4)nc12)CCN3 [Copanlisib (dihydrochloride)] (10 µM)
inactive: BRAF_V600E 0 | BTK 0 | CAMK2A 0 | CAMK2G 0 | CDK10 = 0 | CDK2 = 0 | CDK3 = 0 | CDK4 = 0 | CDK5 = 0 | CDK6 = 0

CCc1nc(C(N)=O)c(Nc2ccc(N3CCC(N4CCN(C)CC4)CC3)c(OC)c2)nc1NC1CCC(OC)CC1 (stereo not given) [EML4-ALK kinase inhibitor 1] (2.5 µM)
inactive: BRAF_V600E 0 | BTK 0 | CAMK2A 0 | CAMK2G 0 | CDK10 = 0 | CDK2 = 0 | CDK3 = 0 | CDK4 = 0 | CDK5 = 0 | CDK6 = 0

C[C@H](Nc1ccc2c(c1)OCCn1cc(N3C(=O)OC[C@H]3C(F)F)nc1-2)C(N)=O (10 µM)
inactive: BRAF_V600E 0 | BTK 0 | CAMK2A 0 | CAMK2G 0 | CDK10 = 0 | CDK2 = 0 | CDK3 = 0 | CDK4 = 0 | CDK5 = 0 | CDK6 = 0

CCS(=O)(=O)c1ccc(Oc2cc(O[C@@H](C)CO)cc(C(=O)Nc3ccn(C)n3)c2)cn1 (10 µM)
inactive: BRAF_V600E 0 | BTK 0 | CAMK2A 0 | CAMK2G 0 | CDK10 = 0 | CDK2 = 0 | CDK3 = 0 | CDK4 = 0 | CDK5 = 0 | CDK6 = 0

COc1ccc(-c2cnc3c(-c4cccc5ncccc45)cnn3c2)cc1 (10 µM)
inactive: BRAF_V600E 0 | BTK 0 | CAMK2A 0 | CAMK2G 0 | CDK10 = 0 | CDK2 = 0 | CDK3 = 0 | CDK4 = 0 | CDK5 = 0 | CDK6 = 0

O=c1ccc2cc(O)c(O)cc2o1 [Esculetin] (10 µM)
inactive: BRAF_V600E 0 | BTK 0 | CAMK2A 0 | CAMK2G 0 | CDK10 = 0 | CDK2 = 0 | CDK3 = 0 | CDK4 = 0 | CDK5 = 0 | CDK6 = 0

NC(=O)c1ccc2nc(-c3ccc(C4(N)CCC4)cc3)c(-c3ccccc3)n2n1 (10 µM)
inactive: BRAF_V600E 0 | BTK 0 | CAMK2A 0 | CAMK2G 0 | CDK10 = 0 | CDK2 = 0 | CDK3 = 0 | CDK4 = 0 | CDK5 = 0 | CDK6 = 0

Cc1ccc(-c2csc(Cn3nc(CC4OCCCO4)c4ccccc4c3=O)n2)cc1 (10 µM)
inactive: BRAF_V600E 0 | BTK 0 | CAMK2A 0 | CAMK2G 0 | CDK10 = 0 | CDK2 = 0 | CDK3 = 0 | CDK4 = 0 | CDK5 = 0 | CDK6 = 0

CN1CCC(c2ccccc2CC(C)(C)Nc2nc(N3CCOCC3)nc(-n3c(S(C)(=O)=O)nc4ccccc43)n2)CC1 (10 µM)
inactive: BRAF_V600E 0 | BTK 0 | CAMK2A 0 | CAMK2G 0 | CDK10 = 0 | CDK2 = 0 | CDK3 = 0 | CDK4 = 0 | CDK5 = 0 | CDK6 = 0

COc1cc(-c2cc(-c3cccc(O)c3)cnc2N)cc(OC)c1OC (2.5 µM)
inactive: BRAF_V600E 0 | BTK 0 | CAMK2A 0 | CAMK2G 0 | CDK10 = 0 | CDK2 = 0 | CDK3 = 0 | CDK4 = 0 | CDK5 = 0 | CDK6 = 0

NC(=O)c1nc(-c2c(F)cccc2Cl)oc1Nc1ccc(C(=O)N2CCOCC2)cc1 (10 µM)
inactive: BRAF_V600E 0 | BTK 0 | CAMK2A 0 | CAMK2G 0 | CDK10 = 0 | CDK2 = 0 | CDK3 = 0 | CDK4 = 0 | CDK5 = 0 | CDK6 = 0

CN(C)CCCn1cc(C2=C(c3c[nH]c4ccccc34)C(=O)NC2=O)c2ccccc21 [Bisindolylmaleimide I] (2.5 µM)
inactive: BRAF_V600E 0 | BTK 0 | CAMK2A 0 | CAMK2G 0 | CDK10 = 0 | CDK2 = 0 | CDK3 = 0 | CDK4 = 0 | CDK5 = 0 | CDK6 = 0

O=C(c1ccc(NS(=O)(=O)c2cccc3cccnc23)cc1)N1CCN(CC2CC2)CC1 [Mitapivat] (10 µM)
inactive: BRAF_V600E 0 | BTK 0 | CAMK2A 0 | CAMK2G 0 | CDK10 = 0 | CDK2 = 0 | CDK3 = 0 | CDK4 = 0 | CDK5 = 0 | CDK6 = 0

Nc1n[nH]c(N)c1N=Nc1ccc(O)cc1 (10 µM)
inactive: BRAF_V600E 0 | BTK 0 | CAMK2A 0 | CAMK2G 0 | CDK10 = 0 | CDK2 = 0 | CDK3 = 0 | CDK4 = 0 | CDK5 = 0 | CDK6 = 0

O=C1C(=Cc2ccc(O)c(O)c2)Oc2ccccc21 (2.5 µM)
inactive: BRAF_V600E 0 | BTK 0 | CAMK2A 0 | CAMK2G 0 | CDK10 = 0 | CDK2 = 0 | CDK3 = 0 | CDK4 = 0 | CDK5 = 0 | CDK6 = 0

COC(=O)[C@]1(C)CC[C@]2(C(=O)O[C@@H]3O[C@H](CO)[C@@H](O)[C@H](O)[C@H]3O)CC[C@]3(C)C(=CC[C@@H]4[C@@]5(C)C[C@H](O)[C@H](O[C@@H]6OC[C@@H](O[C@@H]7O[C@H](CO)[C@@H](O)[C@H](O)[C@H]7O)[C@H](O)[C@H]6O)[C@@](C)(CO)C5CC[C@]43C)[C@H]2C1 (stereo not given in full) [Esculentoside H] (10 µM)
inactive: BRAF_V600E 0 | BTK 0 | CAMK2A 0 | CAMK2G 0 | CDK10 = 0 | CDK2 = 0 | CDK3 = 0 | CDK4 = 0 | CDK5 = 0 | CDK6 = 0

Some of these compounds in order of count of non-hydrogen atoms, ascending.
O=C1C(=Cc2ccc(O)c(O)c2)Oc2ccccc21 (2.5 µM)
inactive: BRAF_V600E 0 | BTK 0 | CAMK2A 0 | CAMK2G 0 | CDK10 = 0 | CDK2 = 0 | CDK3 = 0 | CDK4 = 0 | CDK5 = 0 | CDK6 = 0

O=C(c1ccc(NS(=O)(=O)c2cccc3cccnc23)cc1)N1CCN(CC2CC2)CC1 [Mitapivat] (10 µM)
inactive: BRAF_V600E 0 | BTK 0 | CAMK2A 0 | CAMK2G 0 | CDK10 = 0 | CDK2 = 0 | CDK3 = 0 | CDK4 = 0 | CDK5 = 0 | CDK6 = 0

COC(=O)[C@]1(C)CC[C@]2(C(=O)O[C@@H]3O[C@H](CO)[C@@H](O)[C@H](O)[C@H]3O)CC[C@]3(C)C(=CC[C@@H]4[C@@]5(C)C[C@H](O)[C@H](O[C@@H]6OC[C@@H](O[C@@H]7O[C@H](CO)[C@@H](O)[C@H](O)[C@H]7O)[C@H](O)[C@H]6O)[C@@](C)(CO)C5CC[C@]43C)[C@H]2C1 (stereo not given in full) [Esculentoside H] (10 µM)
inactive: BRAF_V600E 0 | BTK 0 | CAMK2A 0 | CAMK2G 0 | CDK10 = 0 | CDK2 = 0 | CDK3 = 0 | CDK4 = 0 | CDK5 = 0 | CDK6 = 0

Later entries.

CNS(=O)(=O)C[C@H]1CC[C@H](N(C)c2[nH]cnc3nccc2-3)CC1 [Oclacitinib (maleate)] (10 µM)
inactive: BRAF_V600E 0 | BTK 0 | CAMK2A 0 | CAMK2G 0 | CDK10 = 0 | CDK2 = 0 | CDK3 = 0 | CDK4 = 0 | CDK5 = 0 | CDK6 = 0

CCn1c(-c2nonc2N)nc2c(C#CCO)ncc(OCCCN)c21 [AKT Kinase Inhibitor] (10 µM)
inactive: BRAF_V600E 0 | BTK 0 | CAMK2A 0 | CAMK2G 0 | CDK10 = 0 | CDK2 = 0 | CDK3 = 0 | CDK4 = 0 | CDK5 = 0 | CDK6 = 0

O=S(=O)(c1cccc2c(Cl)cccc12)N1CCCNCC1 (10 µM)
inactive: BRAF_V600E 0 | BTK 0 | CAMK2A 0 | CAMK2G 0 | CDK10 = 0 | CDK2 = 0 | CDK3 = 0 | CDK4 = 0 | CDK5 = 0 | CDK6 = 0

COc1cc(/C=C/c2ccc(NC(=O)/C=C/c3cc(OC)c(OC)c(OC)c3)cc2)cc(OC)c1 (2.5 µM)
inactive: BRAF_V600E 0 | BTK 0 | CAMK2A 0 | CAMK2G 0 | CDK10 = 0 | CDK2 = 0 | CDK3 = 0 | CDK4 = 0 | CDK5 = 0 | CDK6 = 0

CNC(=O)Nc1cc(Oc2cncc(C)c2)c(-c2ccc(OCC(C)(C)O)nc2)cn1 (2.5 µM)
inactive: BRAF_V600E 0 | BTK 0 | CAMK2A 0 | CAMK2G 0 | CDK10 = 0 | CDK2 = 0 | CDK3 = 0 | CDK4 = 0 | CDK5 = 0 | CDK6 = 0

COc1ccc(C(=O)c2cn(C(C)C)c3ncnc(N)c23)cc1NC(=O)Nc1ccc(Cl)cc1Cl (10 µM)
inactive: BRAF_V600E 0 | BTK 0 | CAMK2A 0 | CAMK2G 0 | CDK10 = 0 | CDK2 = 0 | CDK3 = 0 | CDK4 = 0 | CDK5 = 0 | CDK6 = 0

O=C(O)/C=C/c1cc(Br)c(Br)c(Br)c1Br (10 µM)
inactive: BRAF_V600E 0 | BTK 0 | CAMK2A 0 | CAMK2G 0 | CDK10 = 0 | CDK2 = 0 | CDK3 = 0 | CDK4 = 0 | CDK5 = 0 | CDK6 = 0

CC(C)=CCC/C(C)=C/CC/C(C)=C/CSc1ccccc1C(=O)O [Salirasib] (10 µM)
inactive: BRAF_V600E 0 | BTK 0 | CAMK2A 0 | CAMK2G 0 | CDK10 = 0 | CDK2 = 0 | CDK3 = 0 | CDK4 = 0 | CDK5 = 0 | CDK6 = 0

CC(C)(O)c1cc2nc(-c3cnc(N)nc3)nc(N3CCOCC3)c2s1 (2.5 µM)
inactive: BRAF_V600E 0 | BTK 0 | CAMK2A 0 | CAMK2G 0 | CDK10 = 0 | CDK2 = 0 | CDK3 = 0 | CDK4 = 0 | CDK5 = 0 | CDK6 = 0

O=C1NC(=O)C(c2ccccc2[N+](=O)[O-])=C1Nc1ccc(O)c(Cl)c1 (10 µM)
inactive: BRAF_V600E 0 | BTK 0 | CAMK2A 0 | CAMK2G 0 | CDK10 = 0 | CDK2 = 0 | CDK3 = 0 | CDK4 = 0 | CDK5 = 0 | CDK6 = 0

N#Cc1c[nH]c2ccc(-c3ccc(-c4c(O)cccc4O)cc3)cc12 (10 µM)
inactive: BRAF_V600E 0 | BTK 0 | CAMK2A 0 | CAMK2G 0 | CDK10 = 0 | CDK2 = 0 | CDK3 = 0 | CDK4 = 0 | CDK5 = 0 | CDK6 = 0

Reference: the supplement of paper PMC12823440, “Inhibitors supercharge kinase turnover through native proteolytic circuits” (Nature, 2025)
